Results as given in patent US12595435B2, “Detergent compositions” (The Procter & Gamble Company, priority 2022, dated 2026).

Test: Laundry test with SPME GC/MS headspace analysis of wet cotton tracers after laundering
Settings: for Headspace above wet cotton tracers, Ex 1 (PQ22): washed with detergent Ex 1 (PQ22); for Headspace above wet cotton tracers, Ex 1 (PQ22) / Headspace above wet cotton tracers, Ex A (nil-PQ22): after fourth wash cycle, SPME GC/MS, 10 min at 65° C.; for Headspace above wet cotton tracers, Ex A (nil-PQ22): washed with detergent Ex A (nil-PQ22); for % increase Ex 1 vs Ex A: headspace of the perfume ingredient on wet cotton tracers

Compound | Headspace above wet cotton tracers, Ex 1 (PQ22) | Headspace above wet cotton tracers, Ex A (nil-PQ22) | % increase Ex 1 vs Ex A
COc1ccc(C=O)cc1 [Anisic aldehyde, 4-methoxybenzaldehyde] | 0.184 nmol/L | 1.755 nmol/L | 
C=CC(C)(O)CCC=C(C)C (stereo not drawn) [Linalool, 3,7-dimethylocta-1,6-dien-3-ol] | 1.132 nmol/L | 1.613 nmol/L | 42%
C=C(C)C1CC=C(C)C(=O)C1 (stereo not drawn) [Laevo carvone, 2-methyl-5-(prop-1-en-2-yl)cyclohex-2-en-1-one] | 1.978 nmol/L | 11.231 nmol/L | 
CC(C)c1cccc(C(C)CC=O)c1 (stereo not drawn) [Florhydral, 3-(3-isopropylphenyl)butanal] | 3.660 nmol/L | 1.455 nmol/L | −60%
COc1ccc2ccccc2c1 [Beta napthol methyl ether, 2-methoxynaphthalene] | 9.801 nmol/L | 19.990 nmol/L | 
CC(=O)c1ccc2ccccc2c1 [Methyl Beta-napthyl ketone, 1-(naphthalen-2-yl)ethan-1-one] | 0.610 nmol/L | 2.243 nmol/L | 
CCCCCCCC=O [Octyl Aldehyde, octanal] | 2.644 nmol/L | 3.072 nmol/L | 16%
CC(C)(O)CCc1ccccc1 [Phenyl ethyl dimethyl carbinol, 2-methyl-4-phenylbutan-2-ol] | 0.036 nmol/L | 0.434 nmol/L | 
C=CCOC(=O)COCCC(C)C [Allyl amyl glycolate, allyl 2-(isopentyloxy)acetate] | 0.233 nmol/L | 4.901 nmol/L | 
CC(C)=CCCC(C)CCO (stereo not drawn) [Citronellol, 3,7-dimethyloct-6-en-1-ol] | 1.244 nmol/L | 2.582 nmol/L | 
CCCC(=O)OCCC(C)C [Isoamyl butyrate, isopentyl butyrate] | 0.074 nmol/L | 6.501 nmol/L | 
C=CC(C)(CCC=C(C)C)OC(=O)CC (stereo not drawn) [Linalyl propionate, 3,7-dimethylocta-1,6-dien-3-yl propionate] | 12.559 nmol/L | 6.315 nmol/L | −50%
CC1/C=C/CCCCCCCCCCC(=O)C1 (stereo not drawn) [Delta muscenone, (E)-3-methylcyclopentadec-4-en-1-one] | 23.019 nmol/L | 16.689 nmol/L | −27%
COc1ccc(C)cc1 [Para cresyl methyl ether, 1-methoxy-4-methylbenzene] | 0.319 nmol/L | 44.122 nmol/L | 
CCOC(=O)C1OC1(C)c1ccccc1 (stereo not drawn) [Ethyl methyl phenyl glycidate, ethyl 3-methyl-3-phenyloxirane-2-carboxylate] | 0.000 nmol/L | 0.038 nmol/L | inf
CC(C)=CCCC(C)CC#N (stereo not drawn) [Citronellyl nitrile, 3,7-dimethyloct-6-enenitrile] | 1.498 nmol/L | 8.338 nmol/L | 
CCC(=O)OCC(C)(C)OC(C)C1CCCC(C)(C)C1 (stereo not drawn) [Helvetolide, 2-(1-(3,3-dimethylcyclohexyl)ethoxy)-2-methylpropyl propionate] | 9.425 nmol/L | 4.732 nmol/L | −50%
3-(3,3-dimethyl-2,3-dihydro-1H-inden-5-yl)propanal mixt. wth 3-(1,1-dimethyl-2,3-dihydro-1H-inden-5-y1)propanal [Neo Hivernal] | 0.328 nmol/L | 0.139 nmol/L | −58%
CC1=CCC2CC1C2(C)C (stereo not drawn) [Alpha pinene, 2,6,6-trimethylbicyclo(3.1.1)hept-2-ene] | 0.909 nmol/L | 0.605 nmol/L | −33%
CC(=O)OCc1ccccc1 [Benzyl acetate, benzyl acetate] | 0.227 nmol/L | 4.405 nmol/L | 
CCOC(=O)C1=C(C)C=CCC1(C)C [Ethyl safranate, ethyl 2,6,6-trimethylcyclohexa-1,3-diene-1-carboxylate] | 2.207 nmol/L | 2.777 nmol/L | 26%
CC(=O)/C=C/C1=C(C)CCCC1(C)C [Ionone beta, (E)-4-(2,6,6-trimethylcyclohex-1-en-1-yl)but-3-en-2-one] | 2.299 nmol/L | 2.72 nmol/L | 18%
CC(C=O)Cc1ccc(C(C)(C)C)cc1 (stereo not drawn) [Lilial, 3-(4-(tert-butyl)phenyl)-2-methylpropanal] | 13.175 nmol/L | 5.941 nmol/L | −55%
COC(=O)c1ccccc1O [Methyl salicylate, methyl 2-hydroxybenzoate] | 2.468 nmol/L | 25.049 nmol/L | 
O=C1CCCCCCCCCCCCCCO1 [Exaltolide total, oxacyclohexadecan-2-one] | 25.157 nmol/L | 16.977 nmol/L | −33%
